For one substance, binding results are on record in patent US20120308578A1.

Amino acid sequences for entries named in this document (tags omitted). Residues count along the entry.
UniProt O75888, residues 105-250: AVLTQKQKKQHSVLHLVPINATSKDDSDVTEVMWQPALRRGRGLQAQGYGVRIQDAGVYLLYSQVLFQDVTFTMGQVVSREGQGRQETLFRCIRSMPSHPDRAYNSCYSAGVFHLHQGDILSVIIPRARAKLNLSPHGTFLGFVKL

For this test, the target named is T1, syndecan-1 (CD138) expressed on the surface of SLE-DCs (human) (UniProt P18827).
T1 sequence (heparan sulfate proteoglycan (glycosaminoglycan chains; sites not stated), looked up): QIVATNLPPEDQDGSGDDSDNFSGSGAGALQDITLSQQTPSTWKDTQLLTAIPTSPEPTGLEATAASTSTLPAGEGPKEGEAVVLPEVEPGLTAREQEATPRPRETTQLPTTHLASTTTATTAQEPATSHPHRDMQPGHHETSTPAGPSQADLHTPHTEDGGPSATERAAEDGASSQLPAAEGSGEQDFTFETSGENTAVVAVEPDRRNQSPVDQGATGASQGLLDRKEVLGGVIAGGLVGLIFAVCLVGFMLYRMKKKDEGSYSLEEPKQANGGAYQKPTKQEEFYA
The experiment in a line: flow cytometry, APRIL trimer titrated on SLE-DCs for 30 min, detected with anti-human APRIL Ab. For orientation: A flow cytometer gives signals particle by particle.

Results are given in words; binding and its absence hold for the method and conditions named. Some binding calls cover weakened binding; strength is not graded here.

With “APRIL trimer (ZymoGenetics) (from UniProt O75888 105-250) (ligand)”, the binding result is listed as “binds”.
